Reference: US8895756B2, “Bendamustine pharmaceutical compositions” (priority 2005, dated 2014)
Further values from the same series stand in other lists.

Tests used:
Assay type in all cases: physicochemical
[1] = HPLC stability of bendamustine (15 mg/mL, mannitol 25.5 mg/mL) in alcohol/water solutions at 5° C.
Experimental: A sample of each formulation was analyzed by HPLC after 0, 3, 6 and 24 hours when stored at 5° C.

[2] = HPLC stability of bendamustine (15 mg/mL, mannitol 25.5 mg/mL) in water at 5° C.; conditions: Water Alone
Experimental: Bendamustine degrades rapidly in water alone and forms predominantly the hydrolysis product, HP1 (monohydroxy bendamustine).
Solutions of bendamustine (15 mg/mL), and mannitol (25.5 mg/mL) were prepared in water at room temperature and immediately placed in an ice bath (to lower the temperature quickly to about 5° C.) for 10 minutes and then refrigerated at 5° C. A sample of each formulation was analyzed by HPLC using the methods described herein after 0, 3, 6 and 24 hours when stored at 5° C.

[3] = HPLC stability of bendamustine in TBA 20% (v/v) with and without mannitol over 24 hours
Description: FIGS. 3 and 4 show the amount of degradation of bendamustine as measured by HP1 and dimer formation quantified by HPLC (as described herein). HP1 and dimer formation increased as the amount of alcohol concentration decreased regardless of the alcohol. This increase in impurities occurred with an anticipated time dependence (see Tables 3-9).

With `Cl.Cn1c(CCCC(=O)O)nc2cc(N(CCCl)CCCl)ccc21` [bendamustine, 4-{5-[Bis(2-chloroethyl)amino]-1-methyl-2-benzimidazolyl}butyric acid] the “Purity (% Area)” value ([1]; 5% Butanol, 0 hours) was 99.25 % Area, the “HP1 (%)” value ([1]; 5% Butanol, 3 hours) was 0.73% and the “Purity (% Area)” value ([1]; 5% Butanol, 3 hours) was 98.94 % Area. For the same compound, the “Purity (% Area)” value ([1]; 30% Butanol (2 layers, vortexed), 6 hours) was 99.40 % Area, the “Purity (% Area)” value ([1]; 30% Butanol (2 layers, vortexed), 24 hours) was 99.00 % Area and the “Dimer (%)” value ([2]; 0 hours) was 0.11%. For the same compound, the “HP1 (%)” value ([2]; 0 hours) was 0.60%, the “Purity (% Area)” value ([2]; 0 hours) was 99.11 % Area and the “Dimer (%)” value ([2]; 3 hours) was 0.13%. For the same compound, the “HP1 (%)” value ([2]; 3 hours) was 0.86%, the “Purity (% Area)” value ([2]; 3 hours) was 98.83 % Area and the “Dimer (%)” value ([2]; 6 hours) was 0.17%. For the same compound, the “HP1 (%)” value ([2]; 6 hours) was 1.22%, the “Purity (% Area)” value ([2]; 6 hours) was 98.44 % Area and the “Dimer (%)” value ([2]; 24 hours) was 0.29%. For the same compound, the “HP1 (%)” value ([2]; 24 hours) was 3.81%, the “Purity (% Area)” value ([2]; 24 hours) was 95.67 % Area and the “HP1 (%)” value ([3]; TBA 20% (v/v) with Mannitol, 0 hours, reverse phase HPLC) was 0.17%. For the same compound, the “HP1 (%)” value ([3]; TBA 20% (v/v) with Mannitol, 24 hours @ 5° C., reverse phase HPLC) was 1.27%, the “HP1 (%)” value ([3]; TBA 20% (v/v) without Mannitol, 0 hours, normal phase HPLC) was 0.00% and the “HP1 (%)” value ([3]; TBA 20% (v/v) without Mannitol, 24 hours @ 5° C., normal phase HPLC) was 1.21%.
